Laboratory results reported in PubChem BioAssay AID540256 (National Center for Advancing Translational Sciences (NCATS), 2011).
Values joined by “and” are separate entries in the source; they are usually repeats but may differ in a detail not shown here. Equal entries are not always repeated. In all, about 300,000 compounds went through this assay and about 3,700 (1.2%) were called active. This list was built around the results that the source calls inconclusive (neither active nor inactive); the mix of calls is not that of the screen. Calls follow the shape of the full dose curve; tested in HEK293 cells. Where the call is inconclusive, the potency comes from a doubtful curve fit.

Test: qHTS for Inhibitors of binding or entry into cells for Lassa Virus; also: nearly all actives have a fitted effect of over 50% in size
Conditions: Lassa virus pseudotype entry inhibition, cell reporter; activity change, negative = inhibition: at 37.9 µM (top of the series) unless noted
% is scaled to controls: 0 for no effect and ±100 for the full control effect; potency is read from the fitted curve at half-maximal effect.

Row | Compound | Potency | activity change, negative = inhibition
1 | COC(=O)c1cc2c(cc1N)OCCO2 | inconclusive: 1.26 µM [inhibitor, single point] | 
2 | CCCS(=O)(=O)N1CCCC(C(=O)NCCOC)C1 (stereo unspecified) |  | inactive: 22.8% [at 46.1 µM]
3 | COc1ccc(C(=O)OCC(=O)NCc2ccc3c(c2)OCO3)cc1S(=O)(=O)N1CCOCC1 |  | inactive: 18.2%
4 | Cc1ccc2nc(-c3cccc(N)c3)oc2c1 | inconclusive: 29.1 µM [inhibitor, single point] | 
5 | COc1ccc(NC(=O)CNC(=O)Cn2c(C)cc3ccccc3c2=O)cc1OC | inconclusive: 11.2 µM [inhibitor, partial curve, poor fit] | 
6 | O=C(CN1CCN(c2ccccc2F)CC1)c1ccc(O)c(O)c1 | inconclusive: 15.8 µM [inhibitor, single point] | 
7 | CCCCN1C(C(=O)c2ccccc2)=C(OC(C)=O)c2ccccc2S1(=O)=O | inconclusive: 35.5 µM [inhibitor, single point] | 
8 | COc1ccc(/C=C/C(=O)NC2CCCCCC2)cc1S(=O)(=O)N1CCOCC1 | inconclusive: 35.5 µM [activator, single point] | 
9 | O=C1c2ccccc2NC(c2cn[nH]c2-c2ccc(Cl)cc2)N1O (stereo unspecified) | inconclusive: 29.1 µM [inhibitor, single point] | 
10 | O=C(O)c1cccc(S(=O)(=O)N2CCN(C(c3ccccc3)c3ccccc3)CC2)c1 |  | inactive: -9.18% [at 46.1 µM]
11 | CCOc1cccc(C(=O)Nc2cc(-c3ccc(C)cc3)no2)c1 |  | inactive: 21.3% [at 46.1 µM]
12 | COc1ccccc1NS(=O)(=O)c1cc(NC(=O)Cc2n[nH]c(=O)c3ccccc23)ccc1Cl | inconclusive: 35.5 µM [inhibitor, single point] | 
13 | COc1cc(C(c2nnnn2C2CCCC2)N2CCc3ccccc3C2)ccc1O (stereo unspecified) |  | inactive: -9.82%
14 | O=C(CN1C(=O)CCc2cc(S(=O)(=O)N3CCOCC3)ccc21)Nc1cccc(C(F)(F)F)c1 | inconclusive: 11.2 µM [inhibitor, partial curve] | 
15 | Cc1cc(-c2nnc(CCC(=O)NC(Cc3ccccc3)c3ccccc3)o2)no1 (stereo unspecified) | inconclusive: 4.47 µM [inhibitor, single point] | 
16 | O=C(COc1ccc(C(=O)c2ccccc2)cc1)NCC(=O)Nc1ccccc1Br | inconclusive: 18.4 µM [activator, partial curve, poor fit] | 
17 | Nc1ccncc1 | inconclusive: 6.51 µM [inhibitor, single point] | 
18 | c1ccc(CN2CCN(c3ncccn3)CC2)cc1 |  | inactive: 23.5%
19 | COc1ccc(OC)c(/C=N/Nc2nncn2/N=C/c2cc(OC)ccc2OC)c1 | inconclusive: 25.9 µM [inhibitor, single point] | 
20 | CCCc1ccc(OC(=O)c2ccc(O)cc2Cl)cc1 |  | inactive: 6% [at 46.1 µM]
21 | S=C1NCCc2ccc(Cl)cc2C1c1ccccc1 (stereo unspecified) | inconclusive: 6.51 µM [activator, full curve] | 
22 | COc1ccc(Nc2ncc(C(=O)N3CCN(c4ccc(F)cc4)CC3)c3ccccc23)cc1 | inconclusive: 29.1 µM [inhibitor, single point] and inconclusive: 2.82 µM [inhibitor, full curve] | 
23 | CCc1ccc(OCCn2cccn2)cc1 |  | inactive: 12.3%
24 | CCN1CCN(C(=O)CCc2nc3ccccc3c(=O)[nH]2)CC1 |  | inactive: 1.76%

Row | Compound | Potency | activity change, negative = inhibition
25 | Cc1cccc(OCCn2c(SCC(=O)O)nc3ccccc32)c1 |  | inactive: 0.847% [at 46.1 µM]
26 | CCN(CC(=O)NCc1ccc(Cl)cc1)C(=O)c1ccc(S(=O)(=O)NCc2ccco2)cc1 |  | inactive: 2.22%
27 | CCOc1ccc(NC(=O)[C@@H](NC(=O)OCc2ccccc2)[C@@H](C)CC)cc1 | inconclusive: 6.51 µM [inhibitor, single point] | 
28 | CCOc1ccc(N(CC)S(=O)(=O)N2CCCC(C(=O)Nc3cc(Cl)ccc3OC)C2)cc1 (stereo unspecified) |  | inactive: 2.51% [at 46.1 µM]
29 | Cc1ccc(-c2cc(-c3ccc(F)cc3)c(C#N)c(N)n2)o1 | inconclusive: 3.16 µM [inhibitor, partial curve, poor fit] | 
30 | Cc1cc(Oc2ccc(-c3ccccc3)cc2)nc(N2CCOCC2)n1 | active: 3.98 µM | 
31 | CCc1cc2c(SC(C)C(=O)NC3CCCC3)ncnc2s1 (stereo unspecified) | inconclusive: 5.62 µM [inhibitor, single point] | 
32 | Cc1cc(C)c2sc(NC(=O)C3=COCCO3)nc2c1 | inconclusive: 8.91 µM [inhibitor, single point] | 
33 | Cc1ccc(CNC(=O)C2=CCN(S(=O)(=O)c3ccc(C)cc3)CC2)cc1 | inconclusive: 0.92 µM [inhibitor, full curve, poor fit] | 
34 | CN(C)/C=C(/C(=O)c1ccccc1Cl)S(=O)(=O)c1ccccc1 |  | inactive: 1.62%
35 | O=C(COC(=O)Cc1ccc(Br)cc1)NC1CCCCC1 | inconclusive: 7.94 µM [activator, partial curve, poor fit] | 
36 | CC(C)C(=O)Nc1ncc(Cc2ccccc2Cl)s1 | inconclusive: 5.62 µM [inhibitor, single point] | 
37 | COc1ccc(N(CC(=O)NCCC(C)C)C(=O)c2snc(C(=O)NC3CCCCC3)c2N)c(OC)c1 | inconclusive: 12.6 µM [inhibitor, partial curve, poor fit] | 
38 | O=C(Nc1ccccn1)c1nc(-c2ccccc2)n(-c2ccccc2)n1 | inconclusive: 23.1 µM [inhibitor, single point] | 
39 | Cc1ccc(C(=O)NC2CCCCCC2)o1 |  | inactive: -11.2%
40 | Cc1cc(=O)n2nc(N3CCC(C(=O)NCc4ccc(F)cc4)CC3)sc2n1 | inconclusive: 5.01 µM [activator, full curve, poor fit] | 
41 | C=C(C)Cn1c(=O)c2c(nc3n2CCN3c2ccc(F)cc2)n(C)c1=O |  | inactive: -1.23% [at 46.1 µM]
42 | O=S(=O)(Cc1ncc(C(F)(F)F)cc1Cl)c1ccccc1 | inconclusive: 5.62 µM [inhibitor, partial curve, poor fit] | 
43 | Cc1ccc(CNC(=O)c2ccc(CSCc3ccccc3C)o2)cc1 | inconclusive: 14.1 µM [inhibitor, single point] | 
44 | Cc1ccn2c(=O)nc(SCC(=O)NC3CCCC3)nc2c1 | inconclusive: 35.5 µM [inhibitor, single point] | 
45 | CCOC(=O)C1CCN(C(=O)c2ccc(S(=O)(=O)Nc3ccccc3Cl)cc2)CC1 | inconclusive: 0.891 µM [inhibitor, partial curve, poor fit] | 
46 | O=C(COc1ccc2ccccc2c1Br)Nc1ccncc1 | inconclusive: 35.5 µM [inhibitor, single point] | 
47 | NS(=O)(=O)c1ccc(NC(=S)NC(=O)c2ccc(-c3ccccc3)cc2)cc1 | inconclusive: 10 µM [inhibitor, partial curve] | 
48 | COc1cc(/C=C2\SC(=S)N(NC(=O)c3ccccc3O)C2=O)ccc1O |  | inactive: 1.28% [at 46.1 µM]

Row | Compound | Potency | activity change, negative = inhibition
49 | CC(=O)C1=C(C)N(CC#C[Si](C)(C)C)C(=O)N(C(C)=O)C1c1ccccc1 (stereo unspecified) | inconclusive: 1.33 µM [inhibitor, single point] | 
50 | COc1ccc(-c2ccc(/C=C3\C(=O)N(c4ccccc4)N=C3c3ccccc3)o2)c([N+](=O)[O-])c1 |  | inactive: -26.1%
51 | CCc1ccc(NC(=O)CSc2nc3c(sc4ccccc43)c(=O)n2CCCOC(C)C)cc1 | inconclusive: 1 µM [inhibitor, full curve, poor fit] | 
52 | Cc1cccc(C(=O)OCC(=O)NCCCc2ccccc2)c1 |  | inactive: 11.1%
53 | CCC(C(=O)OCC(=O)NC(=O)NC(C)(C)C)c1ccccc1 (stereo unspecified) | inconclusive: 29.1 µM [inhibitor, single point] | 
54 | CCOC(=O)c1ccc(S(=O)(=O)N2CCN(CC(O)COc3ccc(C#N)cc3)CC2)cc1 (stereo unspecified) | inconclusive: 35.5 µM [activator, single point] | 
55 | O=C(NC(=S)NC1CCCCC1)c1ccccc1 | inconclusive: 20 µM [inhibitor, single point] | 
56 | CC1(C)Cc2c(sc3c2c(=N)n(Cc2ccco2)c(=O)n3Cc2ccc(F)cc2)CO1 | active: 7.08 µM | 
57 | COc1ccc(-c2c3c(=O)n(C)c(=O)n(C)c3cn2-c2cc(OC)ccc2OC)cc1 | inconclusive: 20 µM [inhibitor, partial curve, poor fit] | 
58 | COc1cc2nc(SCC(=O)Nc3ccccc3F)n3nc(-c4ccccc4)nc3c2cc1OC | inconclusive: 35.5 µM [inhibitor, single point] | 
59 | Cc1ccnc(Nc2nc(-c3ccc(O)cc3)cs2)c1 | inconclusive: 2.82 µM [activator, single point] | 
60 | Cc1nn(-c2ccc(F)cc2)c2nc(N)c(C#N)c(-c3ccc(O)c(O)c3)c12 | inconclusive: 6.31 µM [inhibitor, partial curve, poor fit] | 
61 | O=S(=O)(c1ccc(C(F)(F)F)cc1)N1CCN(CCc2ccccc2)CC1 |  | inactive: -11.5% [at 46.1 µM]
62 | O=C(Nc1nc2ccccc2[nH]1)c1ccc(OC(F)F)cc1 | inconclusive: 5.01 µM [inhibitor, full curve] | 
63 | CCCn1c(NC(=O)c2cccc(C)c2C)nc2ccccc21 |  | inactive: -23.8%
64 | CC1CC(C)(C)NC(=S)N1CCCC(=O)N1CCN(c2ccc(F)cc2)CC1 (stereo unspecified) | inconclusive: 0.251 µM [inhibitor, full curve, poor fit] | 
65 | CCC(=O)Nc1ccc(NC(=O)c2ccccc2Cl)nc1 |  | inactive: 9.19%
66 | O=c1onc(-c2ccccc2)n1-c1cc(Cl)cc(Cl)c1 |  | inactive: -29.7% [at 46.1 µM]
67 | CC1(C)CC(=O)c2cnc(NC(=O)c3ccco3)nc2C1 |  | inactive: 20%
68 | CC(=O)c1ccc(NC(=O)c2ccc(N3C(=O)c4cccnc4C3=O)cc2)cc1 |  | inactive: -0.27%
69 | Cc1ccc(C(=O)N/C(=C/c2cccs2)C(=O)NCCCn2ccnc2)cc1 |  | inactive: -0.0324%
70 | COc1ccc(CNC(=O)CN2C(=O)NC(c3ccccc3)(c3ccccc3)C2=O)cc1 |  | inactive: -7.17%
71 | O=C(O)c1nc(-c2ccccc2)n(-c2cccc(C(F)(F)F)c2)n1 | inconclusive: 35.5 µM [inhibitor, single point] | 

Shown with tabs: entries from further up
Row	Compound	Potency	activity change, negative = inhibition
55	O=C(NC(=S)NC1CCCCC1)c1ccccc1	inconclusive: 20 µM [inhibitor, single point]	
66	O=c1onc(-c2ccccc2)n1-c1cc(Cl)cc(Cl)c1		inactive: -29.7% [at 46.1 µM]
